We go through one molecule from patent US10179115B2, “Methods for treating malaria using potassium channel inhibitors” (THE CHILDREN'S MEDICAL CENTER CORPORATION, priority 2015, dated 2019).

Common to all, as to assay type: cell-based
One assay concerns P. falciparum 7G8. The assay can be described thus: in vitro growth inhibition of P. falciparum 7G8. To be noted: Plasmodium falciparum; P. falciparum 7G8, Res CQ; read-out: IC50 (mean ± 95% confidence interval).
The subject of a further assay is P. falciparum W2mef. In words: microbe, parasite or virus in culture. Conditions: Plasmodium falciparum, read-out: IC50 (mean ± 95% confidence interval).
Another assay deals with P. falciparum 3D7. In words: in vitro growth inhibition of P. falciparum 3D7 over one asexual cycle. Conditions: Plasmodium falciparum, read-out: IC50 (mean ± 95% confidence interval).

In the case of `Clc1ccccc1C(c1ccccc1)(c1ccccc1)n1ccnc1` [CLT, clotrimazole], the IC50 (as a rule, the point on the concentration scale where inhibition reaches its midpoint) with P. falciparum 7G8 was found to be 2.46 ± 0.12 µM; in the assay on P. falciparum W2mef, 8.92 ± 0.02 µM; with P. falciparum 3D7 it was 5.67 ± 1.11 µM.
